Changes are numbered by the printed parent chain. Results are given in words; binding and its absence hold for the method and conditions named. In cells and extracts the contact can be indirect. Some binding calls cover weakened binding; strength is not graded here. Where a sequence is shown, tags or fusion partners need not be part of it. One block for each binder: values may come before it.
How the values were obtained:
[1] = target: T1, GST-ATG8A (Arabidopsis thaliana) (UniProt Q8LEM4); assay: pull-down; as a1, GST-ATG8A and MBP-LCAT4 lysates with AIM wt or AIM mut competition peptide added, final concentration 200 µM
T1 sequence: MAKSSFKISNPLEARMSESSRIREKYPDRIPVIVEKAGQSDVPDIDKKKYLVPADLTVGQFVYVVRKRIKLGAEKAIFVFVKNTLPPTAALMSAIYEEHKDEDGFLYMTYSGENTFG

The chains behind the UniProt entries cited, without tags or fusion partners. Residues count along the entry.
UniProt Q9XEB5, residues 1-117: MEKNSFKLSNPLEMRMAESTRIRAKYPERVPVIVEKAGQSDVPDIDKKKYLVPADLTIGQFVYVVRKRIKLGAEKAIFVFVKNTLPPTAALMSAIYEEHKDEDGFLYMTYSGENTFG

[2] = target: T1, GST-ATG8A (Arabidopsis thaliana); assay: pull-down; GST-ATG8 proteins held on glutathione magnetic agarose beads; normalized E. coli clarified lysates mixed; IP buffer (100 mM NaPi pH 7.2, 300 mM NaCl, 1 mM DTT, 0.01% IGEPAL CA-630), 1 h at 4 °C; blots with anti-GST and anti-MBP
[3] = target: T2, GST-ATG8B (Arabidopsis thaliana) (UniProt Q9XEB5); assay: as above
T2 sequence: T1 sequence with A2E, S4N, I8L, A14M, S17A, S20T, E24A, D28E, I30V, V58I

[4] = target: T3, GST-ATG8C (Arabidopsis thaliana) (UniProt Q8S927); assay: as above
T3 sequence: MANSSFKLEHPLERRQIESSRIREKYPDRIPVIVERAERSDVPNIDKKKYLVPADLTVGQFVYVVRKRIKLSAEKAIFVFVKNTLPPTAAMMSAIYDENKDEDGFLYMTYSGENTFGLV

[5] = target: T4, GST-ATG8D (Arabidopsis thaliana) (UniProt Q9SL04); assay: as above
T4 sequence: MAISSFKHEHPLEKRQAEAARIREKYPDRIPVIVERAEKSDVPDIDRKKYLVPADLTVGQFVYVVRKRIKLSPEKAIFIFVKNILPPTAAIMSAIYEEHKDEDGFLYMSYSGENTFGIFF

[6] = target: T5, GST-ATG8F (Arabidopsis thaliana) (UniProt Q8VYK7); assay: as above
T5 sequence: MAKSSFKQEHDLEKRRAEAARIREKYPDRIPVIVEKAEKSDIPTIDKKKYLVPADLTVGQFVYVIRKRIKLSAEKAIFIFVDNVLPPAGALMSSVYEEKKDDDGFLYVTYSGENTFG

[7] = target: T6, GST-ATG8G (Arabidopsis thaliana) (UniProt Q9LZZ9); assay: as above
T6 sequence: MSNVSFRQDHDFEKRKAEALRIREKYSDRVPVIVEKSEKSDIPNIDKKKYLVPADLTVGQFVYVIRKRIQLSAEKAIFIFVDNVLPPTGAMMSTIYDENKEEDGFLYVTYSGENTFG

[8] = target: T7, GST-ATG8H (Arabidopsis thaliana) (UniProt Q8S925); assay: as above
T7 sequence: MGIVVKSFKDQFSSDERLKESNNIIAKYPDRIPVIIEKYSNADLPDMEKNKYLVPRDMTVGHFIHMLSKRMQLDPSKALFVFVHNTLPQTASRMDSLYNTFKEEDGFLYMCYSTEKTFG

[9] = target: T8, GST-ATG8I (Arabidopsis thaliana) (UniProt Q9LRP7); assay: as above
T8 sequence: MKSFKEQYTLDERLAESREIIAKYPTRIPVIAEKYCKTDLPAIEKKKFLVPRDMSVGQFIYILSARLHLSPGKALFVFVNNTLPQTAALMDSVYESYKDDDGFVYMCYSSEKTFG

[10] = target: T9, GFP-ATG8A (Arabidopsis thaliana) (UniProt Q8LEM4); assay: co-IP; GFP-Trap magnetic agarose beads on cleared lysates of about 100 seedlings (GFP-ATG8A expressing lcat3,4, complemented with LCAT4-RFP or LCAT4^AIM-RFP), after 1 h in MS-NC; 1 h at 4 °C; 25 mM Tris-HCl, 150 mM NaCl, 0.1% IGEPAL; Western blot
T9 sequence: T1 sequence

binding [1]: binds
binding [2]: binds
binding [3]: binds
binding [4]: binds
binding [5]: binds
binding [6]: binds
binding [7]: binds
binding [8]: binds
binding [9]: binds
B1: MBP-LCAT4 (enzyme, UniProt Q71N54 1-535)
chain: MSLLLEEIIRSVEALLKLRNRNQEPYVDPNLNPVLLVPGIAGSILNAVDHENGNEERVWVRIFGADHEFRTKMWSRFDPSTGKTISLDPKTSIVVPQDRAGLHAIDVLDPDMIVGRESVYYFHEMIVEMIGWGFEEGKTLFGFGYDFRQSNRLQETLDQFAKKLETVYKASGEKKINVISHSMGGLLVKCFMGLHSDIFEKYVQNWIAIAAPFRGAPGYITSTLLNGMSFVNGWEQNFFVSKWSMHQLLIECPSIYELMCCPYFKWELPPVLELWREKESNDGVGTSYVVLESYCSLESLEVFTKSLSNNTADYCGESIDLPFNWKIMEWAHKTKQVLASAKLPPKVKFYNIYGTNLETPHSVCYGNEKMPVKDLTNLRYFQPTYICVDGDGTVPMESAMADGLEAVARVGVPGEHRGILNDHRVFRMLKKWLNVGEPDPFYNPVNDYVILPTTYEFEKFHENGLEVASVKESWDIISDDNNIGTTGSTVNSISVSQPGDDQNPQAEARATLTVQPQSDGRQHVELNAVSVSVDA

binding [10]: binds
B2: LCAT4-RFP (enzyme, UniProt Q71N54 1-535)
chain: B1 chain

From article PMC13377104
